From PMC5063967, “EIN2-dependent regulation of acetylation of histone H3K14 and non-canonical histone H3K23 in ethylene signalling” (Nature Communications, 2016) come the findings set out here.

This assay deals with T1, EIN2 C-terminal end (from 808 aa through 1294 aa of EIN2), yeast two-hybrid fusion (Arabidopsis) (UniProt Q9S814).
T1 sequence: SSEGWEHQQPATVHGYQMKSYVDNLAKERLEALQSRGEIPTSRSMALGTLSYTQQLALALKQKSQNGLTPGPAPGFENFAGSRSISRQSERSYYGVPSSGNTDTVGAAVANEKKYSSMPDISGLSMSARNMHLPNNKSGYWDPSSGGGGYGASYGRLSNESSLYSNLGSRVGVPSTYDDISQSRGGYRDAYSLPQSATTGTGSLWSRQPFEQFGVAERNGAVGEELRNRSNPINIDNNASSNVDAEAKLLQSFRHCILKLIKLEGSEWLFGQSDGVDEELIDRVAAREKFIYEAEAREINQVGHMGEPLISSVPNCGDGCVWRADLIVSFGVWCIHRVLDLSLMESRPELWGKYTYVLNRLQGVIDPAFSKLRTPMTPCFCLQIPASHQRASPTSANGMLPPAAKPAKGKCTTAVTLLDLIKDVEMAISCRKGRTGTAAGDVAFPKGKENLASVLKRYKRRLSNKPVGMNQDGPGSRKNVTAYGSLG
Briefly: two-hybrid; yeast two-hybrid screen with EIN2 CEND (808-1294); growth on -Leu, -Trp, -His with 20 mM 3-AT and an X-Gal filter assay.

These are yes or no findings as the source states them, for the method shown. Some binding calls cover weakened binding; strength is not graded here. Where a sequence is shown, tags or fusion partners need not be part of it.

B1: EIN2 nuclear associated protein 1 (ENAP1), yeast two-hybrid fusion (protein, UniProt Q8VZI9 1-249)
chain: METTPETQSKTHRLPAGREDWWSEDATATLIEAWGDRYVNLNRGNLRQNDWKEVADAVNSSHGNGRPKTDVQCKNRIDTLKKKYKTEKAKPLSNWCFFDRLDFLIGPVMKKSSGAVVKSALMNPNLNPTGSKSTGSSLDDDDDDDDDDEEDDDDAGDWGFVVRKHRKVEDVDSSEGSAFRELARSILKLGEAFERIEGKKQQMMIELEKQRMEVAKELELQRMNMLMEMQLELEKSKLGKRRAASGKKL
B1: the binding entry is on record as “binds”.
